# Experimental data: the supplement of paper PMC6411743
# Sequences of proteins named here, by UniProt entry; tags and fusion partners are left off. A change or cut given only in a name is not applied to a line headed by its entry.
# UniProt P51965: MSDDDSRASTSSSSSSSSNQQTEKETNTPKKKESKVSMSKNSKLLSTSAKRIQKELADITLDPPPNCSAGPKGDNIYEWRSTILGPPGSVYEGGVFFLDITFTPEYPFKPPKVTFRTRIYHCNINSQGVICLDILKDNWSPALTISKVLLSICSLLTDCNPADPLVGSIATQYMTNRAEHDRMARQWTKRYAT
# UniProt Q9P289: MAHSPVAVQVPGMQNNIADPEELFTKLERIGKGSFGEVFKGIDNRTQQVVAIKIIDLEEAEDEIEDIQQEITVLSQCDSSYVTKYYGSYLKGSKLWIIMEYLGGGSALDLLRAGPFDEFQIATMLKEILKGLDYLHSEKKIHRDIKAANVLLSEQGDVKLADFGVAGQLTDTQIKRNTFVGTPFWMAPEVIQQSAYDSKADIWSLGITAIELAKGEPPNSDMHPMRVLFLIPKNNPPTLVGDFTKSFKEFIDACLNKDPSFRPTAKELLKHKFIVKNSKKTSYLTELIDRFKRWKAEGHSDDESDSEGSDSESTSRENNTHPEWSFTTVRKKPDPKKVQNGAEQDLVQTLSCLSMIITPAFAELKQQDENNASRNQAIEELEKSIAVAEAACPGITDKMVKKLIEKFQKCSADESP
# UniProt P48444: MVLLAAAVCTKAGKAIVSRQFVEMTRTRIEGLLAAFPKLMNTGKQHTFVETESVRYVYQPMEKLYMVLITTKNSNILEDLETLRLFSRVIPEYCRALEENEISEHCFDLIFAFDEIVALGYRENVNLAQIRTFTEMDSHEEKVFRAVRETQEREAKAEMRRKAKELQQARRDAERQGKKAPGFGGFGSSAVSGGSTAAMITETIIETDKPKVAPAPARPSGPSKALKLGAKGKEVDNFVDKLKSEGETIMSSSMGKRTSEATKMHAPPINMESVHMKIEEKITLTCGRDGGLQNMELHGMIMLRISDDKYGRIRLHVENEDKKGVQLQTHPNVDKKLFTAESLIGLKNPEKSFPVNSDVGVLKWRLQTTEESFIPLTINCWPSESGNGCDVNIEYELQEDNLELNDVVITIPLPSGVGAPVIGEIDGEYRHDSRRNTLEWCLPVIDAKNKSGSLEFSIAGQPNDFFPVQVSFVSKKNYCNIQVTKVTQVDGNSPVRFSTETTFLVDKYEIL
# UniProt A8MWD9, whole entry, looked up: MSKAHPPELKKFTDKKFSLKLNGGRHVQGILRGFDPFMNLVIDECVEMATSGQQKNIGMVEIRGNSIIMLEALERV
# UniProt P62308, whole entry, looked up: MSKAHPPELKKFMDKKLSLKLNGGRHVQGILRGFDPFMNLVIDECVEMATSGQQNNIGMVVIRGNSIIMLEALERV
# UniProt Q8NBI6: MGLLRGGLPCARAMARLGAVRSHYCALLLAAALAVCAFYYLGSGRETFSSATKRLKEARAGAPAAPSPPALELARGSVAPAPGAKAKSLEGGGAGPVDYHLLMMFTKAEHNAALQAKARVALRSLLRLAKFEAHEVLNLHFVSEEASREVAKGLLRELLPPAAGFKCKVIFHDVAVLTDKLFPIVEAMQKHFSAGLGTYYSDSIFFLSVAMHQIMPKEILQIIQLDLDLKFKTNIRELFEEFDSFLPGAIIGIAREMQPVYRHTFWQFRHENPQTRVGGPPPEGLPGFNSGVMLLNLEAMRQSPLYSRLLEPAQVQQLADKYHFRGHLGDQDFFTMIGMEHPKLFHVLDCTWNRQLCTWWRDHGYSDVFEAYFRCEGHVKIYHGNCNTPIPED
# UniProt A6H8Y1: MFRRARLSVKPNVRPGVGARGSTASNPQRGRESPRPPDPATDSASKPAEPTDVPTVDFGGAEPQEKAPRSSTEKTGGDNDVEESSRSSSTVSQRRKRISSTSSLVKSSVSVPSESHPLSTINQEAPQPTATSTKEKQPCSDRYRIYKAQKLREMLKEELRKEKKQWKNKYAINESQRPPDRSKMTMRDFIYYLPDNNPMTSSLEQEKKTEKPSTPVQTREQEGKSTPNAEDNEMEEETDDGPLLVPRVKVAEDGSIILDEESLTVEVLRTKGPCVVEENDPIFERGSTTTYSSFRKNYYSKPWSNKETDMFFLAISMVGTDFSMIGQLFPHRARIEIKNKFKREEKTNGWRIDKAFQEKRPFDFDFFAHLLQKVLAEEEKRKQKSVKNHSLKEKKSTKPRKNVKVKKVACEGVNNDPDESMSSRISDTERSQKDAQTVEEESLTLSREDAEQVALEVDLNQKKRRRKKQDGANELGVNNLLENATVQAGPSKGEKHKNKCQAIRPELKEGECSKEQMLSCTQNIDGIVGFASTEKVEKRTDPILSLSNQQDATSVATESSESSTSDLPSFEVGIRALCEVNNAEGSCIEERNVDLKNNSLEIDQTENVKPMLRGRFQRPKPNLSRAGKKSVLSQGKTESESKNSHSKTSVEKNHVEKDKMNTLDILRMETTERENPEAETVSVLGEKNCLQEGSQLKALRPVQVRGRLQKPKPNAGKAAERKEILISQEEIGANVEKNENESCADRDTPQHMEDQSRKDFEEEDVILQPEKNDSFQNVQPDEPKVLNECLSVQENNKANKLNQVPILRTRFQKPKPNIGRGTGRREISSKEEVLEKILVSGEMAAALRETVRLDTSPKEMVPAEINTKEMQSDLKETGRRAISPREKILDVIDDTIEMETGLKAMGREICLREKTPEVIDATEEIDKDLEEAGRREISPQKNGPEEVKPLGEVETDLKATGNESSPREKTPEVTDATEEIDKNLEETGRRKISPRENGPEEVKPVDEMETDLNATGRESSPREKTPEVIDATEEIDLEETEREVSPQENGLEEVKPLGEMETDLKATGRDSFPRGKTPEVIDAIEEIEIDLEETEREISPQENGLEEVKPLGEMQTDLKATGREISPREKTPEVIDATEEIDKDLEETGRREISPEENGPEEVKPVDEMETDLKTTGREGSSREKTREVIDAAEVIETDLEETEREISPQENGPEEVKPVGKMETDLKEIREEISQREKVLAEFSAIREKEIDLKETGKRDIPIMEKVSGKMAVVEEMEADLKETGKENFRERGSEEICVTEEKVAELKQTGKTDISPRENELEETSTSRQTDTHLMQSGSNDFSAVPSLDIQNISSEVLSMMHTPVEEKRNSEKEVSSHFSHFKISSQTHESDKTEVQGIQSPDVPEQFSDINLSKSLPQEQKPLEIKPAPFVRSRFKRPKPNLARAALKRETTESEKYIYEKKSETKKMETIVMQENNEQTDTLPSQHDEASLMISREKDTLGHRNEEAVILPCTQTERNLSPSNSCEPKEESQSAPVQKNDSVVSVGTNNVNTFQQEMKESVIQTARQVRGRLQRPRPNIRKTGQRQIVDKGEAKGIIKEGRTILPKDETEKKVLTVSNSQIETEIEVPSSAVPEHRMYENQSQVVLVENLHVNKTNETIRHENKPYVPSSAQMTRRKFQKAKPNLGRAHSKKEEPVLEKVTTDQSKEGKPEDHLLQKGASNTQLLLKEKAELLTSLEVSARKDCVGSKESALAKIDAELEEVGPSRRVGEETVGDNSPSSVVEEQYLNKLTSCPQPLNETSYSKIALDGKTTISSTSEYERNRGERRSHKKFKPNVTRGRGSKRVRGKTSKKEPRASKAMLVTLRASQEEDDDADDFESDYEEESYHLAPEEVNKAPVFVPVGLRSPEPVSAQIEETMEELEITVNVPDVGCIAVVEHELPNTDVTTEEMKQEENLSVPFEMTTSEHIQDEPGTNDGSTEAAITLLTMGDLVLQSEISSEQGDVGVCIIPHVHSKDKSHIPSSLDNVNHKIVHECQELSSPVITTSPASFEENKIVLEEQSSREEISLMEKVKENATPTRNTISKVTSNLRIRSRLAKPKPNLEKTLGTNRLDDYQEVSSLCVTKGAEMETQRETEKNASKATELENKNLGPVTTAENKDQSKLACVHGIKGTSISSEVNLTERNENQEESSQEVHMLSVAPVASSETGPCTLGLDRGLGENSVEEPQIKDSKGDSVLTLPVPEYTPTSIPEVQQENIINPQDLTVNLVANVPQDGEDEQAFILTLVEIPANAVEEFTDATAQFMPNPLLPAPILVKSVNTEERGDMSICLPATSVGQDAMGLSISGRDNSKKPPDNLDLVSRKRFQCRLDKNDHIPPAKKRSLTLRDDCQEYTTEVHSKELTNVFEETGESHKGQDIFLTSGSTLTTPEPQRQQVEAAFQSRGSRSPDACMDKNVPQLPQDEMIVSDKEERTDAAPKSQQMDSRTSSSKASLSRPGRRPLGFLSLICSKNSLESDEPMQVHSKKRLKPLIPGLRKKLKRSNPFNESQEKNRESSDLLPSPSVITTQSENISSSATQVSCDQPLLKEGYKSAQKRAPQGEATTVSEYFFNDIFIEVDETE
# UniProt Q5XKP0: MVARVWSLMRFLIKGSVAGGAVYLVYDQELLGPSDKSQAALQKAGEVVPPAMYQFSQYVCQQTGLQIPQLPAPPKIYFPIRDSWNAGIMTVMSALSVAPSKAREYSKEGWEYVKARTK
# UniProt Q8WUH1: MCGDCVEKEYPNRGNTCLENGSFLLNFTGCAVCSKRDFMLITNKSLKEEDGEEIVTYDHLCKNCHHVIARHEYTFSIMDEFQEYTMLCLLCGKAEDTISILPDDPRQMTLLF
# UniProt Q92925, whole entry: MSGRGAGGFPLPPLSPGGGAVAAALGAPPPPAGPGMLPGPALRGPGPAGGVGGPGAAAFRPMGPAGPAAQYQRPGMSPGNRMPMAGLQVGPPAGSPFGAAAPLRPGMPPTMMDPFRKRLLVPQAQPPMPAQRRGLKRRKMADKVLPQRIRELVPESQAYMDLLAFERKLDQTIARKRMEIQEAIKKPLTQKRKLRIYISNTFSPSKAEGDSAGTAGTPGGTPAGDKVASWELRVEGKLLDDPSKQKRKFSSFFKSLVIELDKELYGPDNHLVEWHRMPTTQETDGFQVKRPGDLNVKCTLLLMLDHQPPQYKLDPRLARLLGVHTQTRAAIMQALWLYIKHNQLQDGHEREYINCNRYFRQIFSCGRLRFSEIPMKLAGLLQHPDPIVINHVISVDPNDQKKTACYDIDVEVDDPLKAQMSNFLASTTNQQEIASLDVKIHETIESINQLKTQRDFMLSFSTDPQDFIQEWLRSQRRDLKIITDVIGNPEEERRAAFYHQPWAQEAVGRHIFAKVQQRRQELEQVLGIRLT
# UniProt A6NFI3: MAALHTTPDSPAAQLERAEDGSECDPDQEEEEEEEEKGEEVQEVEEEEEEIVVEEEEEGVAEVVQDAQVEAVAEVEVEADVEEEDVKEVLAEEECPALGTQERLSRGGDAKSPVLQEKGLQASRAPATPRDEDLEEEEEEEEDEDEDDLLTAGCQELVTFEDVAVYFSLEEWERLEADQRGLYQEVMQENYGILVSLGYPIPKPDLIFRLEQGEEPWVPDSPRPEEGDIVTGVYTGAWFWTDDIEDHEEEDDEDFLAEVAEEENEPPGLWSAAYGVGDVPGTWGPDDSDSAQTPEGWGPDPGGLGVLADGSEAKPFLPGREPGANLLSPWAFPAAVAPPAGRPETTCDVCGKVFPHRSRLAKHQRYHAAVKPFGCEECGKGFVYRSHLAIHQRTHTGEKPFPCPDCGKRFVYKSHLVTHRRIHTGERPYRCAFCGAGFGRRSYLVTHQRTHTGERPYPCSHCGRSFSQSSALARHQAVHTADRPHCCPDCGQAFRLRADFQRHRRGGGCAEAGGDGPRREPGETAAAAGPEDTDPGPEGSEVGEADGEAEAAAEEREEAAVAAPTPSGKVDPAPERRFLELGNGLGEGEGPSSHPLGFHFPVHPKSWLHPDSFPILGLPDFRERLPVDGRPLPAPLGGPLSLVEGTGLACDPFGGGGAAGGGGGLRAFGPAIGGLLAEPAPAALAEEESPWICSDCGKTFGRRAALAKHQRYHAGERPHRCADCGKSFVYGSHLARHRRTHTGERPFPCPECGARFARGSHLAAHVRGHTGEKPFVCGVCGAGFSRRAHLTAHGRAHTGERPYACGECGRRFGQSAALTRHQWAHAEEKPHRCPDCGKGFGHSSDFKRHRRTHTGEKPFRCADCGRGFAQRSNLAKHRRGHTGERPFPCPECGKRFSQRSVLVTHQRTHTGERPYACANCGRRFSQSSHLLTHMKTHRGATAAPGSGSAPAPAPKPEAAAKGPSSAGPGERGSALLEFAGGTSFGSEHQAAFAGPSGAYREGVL
# UniProt Q9BZK7: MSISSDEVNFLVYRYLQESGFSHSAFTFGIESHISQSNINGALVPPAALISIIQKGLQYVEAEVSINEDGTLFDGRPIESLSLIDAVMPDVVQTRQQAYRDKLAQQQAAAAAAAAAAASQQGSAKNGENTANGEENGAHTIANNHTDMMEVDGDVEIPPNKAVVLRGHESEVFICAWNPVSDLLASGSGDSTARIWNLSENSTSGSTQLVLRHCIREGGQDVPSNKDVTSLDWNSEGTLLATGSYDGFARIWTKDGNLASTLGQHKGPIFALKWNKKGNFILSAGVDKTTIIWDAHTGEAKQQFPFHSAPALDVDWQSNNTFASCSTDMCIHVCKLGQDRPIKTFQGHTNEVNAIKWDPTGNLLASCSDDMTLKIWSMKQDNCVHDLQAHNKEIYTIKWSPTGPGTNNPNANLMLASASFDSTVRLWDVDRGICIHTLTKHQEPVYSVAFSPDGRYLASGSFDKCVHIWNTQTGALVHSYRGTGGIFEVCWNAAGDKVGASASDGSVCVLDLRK
# ± gives the standard deviation of the averaged measurements. The entries are a selection whose mix differs from that of the whole data set. Small differences around the control level are noise.
# Compound: Nc1ncnc2c1ncn2[C@@H]1O[C@H](COP(=O)(O)OP(=O)(O)OP(=O)(O)O)[C@@H](O)[C@H]1O [adenosine triphosphate]
# Test: NP40-soluble protein abundance relative to vehicle (solubility fold change) (ratio); higher = more soluble protein in presence of ATP
# Outline: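 Values are fold changes against the detergent-processed vehicle, based on vsn-normalised intensities. Jurkat crude lysate was treated at eight concentrations from 0.1 to 10 mM (10 min at room temperature, then 3 min at 37 °C), solubilised with 0.8% NP40 and benzonase, ultracentrifuged and analysed by TMT-labelled LC-MS/MS over three independent experiments.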
Target,NP40-soluble protein abundance (concentration: 0.1mM),NP40-soluble protein abundance (concentration: 0.5mM)
B4DR61 and related entries (UniProt P61619),1.03 ± 0.11,1.04 ± 0.049
B7WPE2 and related entries (UniProt Q32P44),1.033 ± 0.0067,1.13 ± 0.036
A0A0J9YWD5|A0A0J9YYB5|B7ZM65 and related entries (UniProt Q9P1Y6),0.944 ± 0.073,0.964 ± 0.073
C9J2P0 and related entries (UniProt P51965),0.999 ± 0.098,1.09 ± 0.08
C9JNW5 and related entries (UniProt P83731),0.885 ± 0.042,0.903 ± 0.025
B4E0Y9 and related entries (UniProt Q9P289),0.992 ± 0.029,0.995 ± 0.017
B0YIW6 and related entries (UniProt P48444),1.04 ± 0.053,1.02 ± 0.034
B7Z2Y2 and related entries (UniProt Q14746),0.999 ± 0.071,0.988 ± 0.1
C9IYN7 and related entries (UniProt Q0PNE2),1.04 ± 0.12,1.04 ± 0.096
A6NHB5 and related entries (UniProt Q14202),1 ± 0.06,1.03 ± 0.076
A8MWD9 and related entries (UniProt P62308+A8MWD9),1.039 ± 0.0044,1.05 ± 0.12
C9JA69 and related entries (UniProt Q8WY36),1.1 ± 0.093,1.03 ± 0.015
UniProt A6QL63 and related entries,1.02 ± 0.039,1.01 ± 0.028
UniProt A5YKK6 and related entries,1.06 ± 0.051,1.16 ± 0.048
A2A274 and related entries (UniProt Q99798),1.07 ± 0.068,1.05 ± 0.065
C9JYS5 and related entries (UniProt J3QL63+J3QL47+Q9NYZ1+C9JYS5),1.03 ± 0.18,1.05 ± 0.12
A0A140T9D0|Q8NBI6 and related entries (UniProt Q8NBI6),0.919 ± 0.056,0.963 ± 0.033
A6NJD9 and related entries (UniProt Q16540),0.929 ± 0.17,0.933 ± 0.12
UNC119B (UniProt A6NIH7),1.06 ± 0.1,1.07 ± 0.093
D3DSM0 and related entries (UniProt P05107),1.02 ± 0.049,1.01 ± 0.047
D6RD24 and related entries (UniProt Q7Z6J8),1.03 ± 0.19,0.99 ± 0.089
C9JLT7 and related entries (UniProt Q8TBF5),0.92 ± 0.076,0.941 ± 0.051

# Shown tab-delimited: entries from further up.
Target	NP40-soluble protein abundance (concentration: 0.1mM)	NP40-soluble protein abundance (concentration: 0.5mM)
B7WPE2 and related entries (UniProt Q32P44)	1.033 ± 0.0067	1.13 ± 0.036
D6RD24 and related entries (UniProt Q7Z6J8)	1.03 ± 0.19	0.99 ± 0.089

# More records:

Target,NP40-soluble protein abundance (concentration: 0.1mM),NP40-soluble protein abundance (concentration: 0.5mM)
C9J406 and related entries (UniProt Q16891),1 ± 0.049,1.01 ± 0.076
C9JF58 and related entries (UniProt Q8WVF1),1.01 ± 0.058,0.985 ± 0.082
UniProt A2RUC4 and related entries,1.04 ± 0.14,1.04 ± 0.084
D4Q8H0 and related entries (UniProt Q9NYL2+D4Q8H0),1.036 ± 0.0056,1.02 ± 0.052
A0A0G2JNU3|A6H8Y1 and related entries (UniProt A6H8Y1),1 ± 0.033,0.971 ± 0.049
HACD1 (UniProt B0YJ81),1.08 ± 0.046,1.11 ± 0.13
A0A0G2JH68 (UniProt O60610),0.976 ± 0.024,0.994 ± 0.048
A0A0G2JLB3|A0A0G2JNZ0|A0A0G2JNZ5|P04062 and related entries (UniProt P04062),1.01 ± 0.076,0.927 ± 0.088
A0A140TA86|Q5XKP0 (UniProt Q5XKP0),0.88 ± 0.07,0.863 ± 0.084
A6NHG8 and related entries (UniProt Q13114),1.08 ± 0.029,1.07 ± 0.013
UniProt A6NHX0,1.04 ± 0.18,1.02 ± 0.034
C9JXQ9 and related entries (UniProt O95168),0.937 ± 0.042,0.815 ± 0.11
C9JF66 and related entries (UniProt Q6PIZ9),0.97 ± 0.052,0.956 ± 0.088
D6RE79 and related entries (UniProt Q14728),1.09 ± 0.041,1.03 ± 0.027
B9A018 and related entries (UniProt Q53GS9),1.05 ± 0.083,1.13 ± 0.088
B4DL54 and related entries (UniProt Q8WUH1),1.04 ± 0.063,1.03 ± 0.087
B9EGA3 and related entries (UniProt Q92925),0.975 ± 0.051,1.02 ± 0.061
C9J2Y9 and related entries (UniProt P30876),1.04 ± 0.045,1.07 ± 0.027
ZNF316 (UniProt A6NFI3),0.985 ± 0.066,0.97 ± 0.021
C9JLJ1 and related entries (UniProt Q9BZK7),0.979 ± 0.062,1.03 ± 0.037
C9JLV4 and related entries (UniProt O14727),1.06 ± 0.064,1.01 ± 0.052
